## Percent effect of library compounds

Data taken from ChEMBL document CHEMBL3988442, “University of Dundee, Small-Polar-MMV Screening Library” (2021).

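Cell assay of Leishmania donovani living inside macrophages; the read-out is not stated. Tested at 30 µM. The record gives no direction; compounds that gave an IC50 in retests scored well above the rest, so higher reads as stronger inhibition. Of about 69,000 compounds tested this way, about 1,000 (1.5%) reached 50% or more in at least one test.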

Results are given as percent effect.
The controls that fix the scale are not given in the record; negative values are as filed.
The compounds are a random part of those screened.
Two or more numbers in one place are separate tests of the same structure; such repeats can differ widely.

{"compound": "CCc1nnc(C2Cc3ccccc3CN2Cc2nc(C3CC3)no2)o1", "stereo": "stereo not given", "percent effect": 27.62}
{"compound": "CCN(CC)C(=O)C1CCN(C(=O)Nc2cccnc2OC)CC1", "percent effect": 21.54}
{"compound": "COCC(=O)N1CCCC2(CCN(c3ccccc3)C2=O)C1", "stereo": "stereo not given", "percent effect": 20.04}
{"compound": "Cc1nc(N2CCCC2)nc2c1CN(C(C)C)CC2.O=C(O)C(F)(F)F", "percent effect": 21.41}
{"compound": "FC(F)(F)CCc1ccnc(N2CCN(Cc3ccccn3)CC2)n1", "percent effect": -3.727}
{"compound": "CCN(Cc1ccncc1)C1CCCN(Cc2ccc(F)cc2Cl)C1", "stereo": "stereo not given", "percent effect": 28.74}
{"compound": "CCN1CC(C(=O)NCc2ccnc(-n3ccnc3C)c2)CC1=O", "stereo": "stereo not given", "percent effect": 21.26}
{"compound": "Cc1cc(C(=O)NC2CCN(C(=O)Nc3cccnc3)CC2)c(C)o1", "percent effect": -0.1622}
{"compound": "CNc1cncc(C2CCCN2Cc2ccccn2)n1", "stereo": "stereo not given", "percent effect": 32.43}
{"compound": "O=S1(=O)COCCN1Cc1ccc(F)c(F)c1", "percent effect": -27.89}
{"compound": "O=C(c1ccc[nH]1)N1CCc2nnc(Cn3cccc3)n2CC1", "percent effect": 34.59}
{"compound": "N#CCCCn1nnnc1Cc1ccc(Br)cc1", "percent effect": 2.644}
{"compound": "C[C@@H]1CN(c2ccc3c(Cl)ccnc3c2F)CC(C(N)=O)O1", "stereo": "stereo not given in full", "percent effect": 12.47}
{"compound": "Cc1cccc(NC(=O)NC2CCN(C3CCOC3)CC2)c1", "stereo": "stereo not given", "percent effect": 5.228}
{"compound": "CC(=O)N[C@H]1CCO[C@@H](c2cccc(NC(=O)C(C)(C)C)c2)C1", "percent effect": -26.07}
{"compound": "Cc1ccc(OCCCNC(=O)CN(C)c2ccc(C#N)cn2)cc1", "percent effect": 0.985}
{"compound": "O=C(c1cccnc1)N1CCOC(Cc2ccccc2Cl)C1", "stereo": "stereo not given", "percent effect": 2.121}
{"compound": "Cc1n[nH]cc1CNC(C(=O)N1CCOCC1)c1ccccc1", "stereo": "stereo not given", "percent effect": -16.86}
{"compound": "CNC(=O)CN(C)CC1(c2ccc(Br)cc2)CC1", "percent effect": 12.21}
{"compound": "Cc1nccn1CCNC(=O)C1(C)CC(c2ccccc2)=NO1", "stereo": "stereo not given", "percent effect": -12.13}
{"compound": "Cc1cc(C)cc(OCCN(C)Cc2cscn2)c1", "percent effect": -8.451}
{"compound": "O=C(O)C(F)(F)F.[H][C@]12CC[C@@]3(N=C(CC)NC3=O)[C@@]1([H])CN(Cc1ccccc1F)C2", "percent effect": 17.67}
{"compound": "OC[C@@H]1CCCN1c1nccc(-c2c[nH]nc2-c2ccncc2)n1", "percent effect": "-8.356 & 3.933"}
{"compound": "CNc1cncc(C2CCCN2c2cc(C)ncn2)n1", "stereo": "stereo not given", "percent effect": -3.84}
{"compound": "COC1CN(C(=O)CC(C)(C)C)CCC(=O)N(C)c2ccccc21", "stereo": "stereo not given", "percent effect": 7.499}
{"compound": "CN(C)C(=O)c1nc(-c2ccc(S(C)(=O)=O)cc2)c2ccccn12", "percent effect": 6.888}
{"compound": "CCc1nc(C2CCCN2Cc2nc(CCOC)no2)no1", "stereo": "stereo not given", "percent effect": 14.38}
{"compound": "CNC(=O)c1cccc(CCNc2ccc(C#N)cn2)c1", "percent effect": 2.089}
{"compound": "Cc1ccc(-c2noc(Cn3nc(C(N)=O)ccc3=O)n2)cc1", "percent effect": 28.51}
{"compound": "NS(=O)(=O)CCNC(=O)C1(c2ccccc2)CC1", "percent effect": -13.94}
{"compound": "COc1ccc2cc(C3CN(C(=O)C4CCOCC4)CCO3)ccc2c1", "stereo": "stereo not given", "percent effect": 33.79}
{"compound": "Cc1ccccc1C(C)NC(=O)CN1CCN(Cc2ccc(Cl)s2)CC1", "stereo": "stereo not given", "percent effect": 0.4445}